PubChem BioAssay AID1259254 | NCATS, 2017

Test: 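Finding genes that stop cells copying their DNA twice in one cycle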 (primary screen)
Cells: human HCT116 colorectal cancer cells
Knock-down reagent: single siRNA against human genes
Timing: 3 days
Read-out: 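Nuclei stained with Hoechst and imaged; cell-cycle phase assigned by DNA content; G2 share scaled per plate, non-targeting siRNA 0%, GMNN siRNA 100%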
Direction: G2 robust z-score: higher = more G2 cells, more excess DNA replication
Rule for the call: 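Active siRNAs have a G2 robust z of 5 or more median absolute deviations over the median, which in these data means about 38% or higher of GMNN control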
This is one part, drawn at random, of about 59,000 reagents. About 1,550 of all reagents (2.6%) were called active. 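G2 share is only a proxy for re-replication; each gene was hit by three separate siRNAs, and active genes were retested.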 Reagents against one gene are numbered here. Further read-outs or replicates are left out here. No sequences are given here. Not stated in the record: the amount of reagent.

COL4A1 (collagen type IV alpha 1 chain) #1 scored G2 robust z-score 0.547; inactive.
Against COL4A1 (collagen type IV alpha 1 chain) #2, the entry reads G2 robust z-score -0.196; inactive.
With knock-down of COL4A1 (collagen type IV alpha 1 chain) #3, the screen gave G2 robust z-score -0.354; inactive.
For MYOT (myotilin) #1 the deposit lists G2 robust z-score 2.92; inactive.
With knock-down of MYOT (myotilin) #2, the record shows G2 robust z-score -0.0255; inactive.
Depletion of MYOT (myotilin) #3 gave: G2 robust z-score -0.826; inactive.
After knock-down of SPAG5 (sperm associated antigen 5) #1, the screen gave G2 robust z-score -0.446; inactive.
With knock-down of SPAG5 (sperm associated antigen 5) #2, the screen gave G2 robust z-score -0.347; inactive.
For SPAG5 (sperm associated antigen 5) #3, the values are G2 robust z-score -0.197; inactive.

Part of the list above, set out differently:
gene symbol | reagent no. | G2 robust z-score | Outcome
SPAG5 (sperm associated antigen 5) | 1 | -0.446 | inactive
SPAG5 (sperm associated antigen 5) | 2 | -0.347 | inactive
SPAG5 (sperm associated antigen 5) | 3 | -0.197 | inactive

The list goes on:
After knock-down of COLEC11 (collectin subfamily member 11) #1, the record shows G2 robust z-score -0.00797; inactive.
For COLEC11 (collectin subfamily member 11) #2, the entry reads G2 robust z-score -0.357; inactive.
Knock-down of COLEC11 (collectin subfamily member 11) #3 resulted in: G2 robust z-score -1.14; inactive.
MLC1 (modulator of VRAC current 1) #1 showed G2 robust z-score 0.451; inactive.
Depletion of MLC1 (modulator of VRAC current 1) #2 came out at: G2 robust z-score -1; inactive.
With knock-down of MLC1 (modulator of VRAC current 1) #3, the screen gave G2 robust z-score 0.11; inactive.
EIF3D (eukaryotic translation initiation factor 3 subunit D) #1 scored G2 robust z-score 0.312; inactive.
After knock-down of EIF3D (eukaryotic translation initiation factor 3 subunit D) #2, the record shows G2 robust z-score 3.35; inactive.
With knock-down of EIF3D (eukaryotic translation initiation factor 3 subunit D) #3 the results were G2 robust z-score 2.05; inactive.
